Taken from: PubChem BioAssay AID504808 (Drosophila RNAi Screening Center, 2011)
In all, the deposit lists about 21,000 reagents; below is a random part of those that have a named target and a result. Over the whole deposit, 18 (0.084%) got an active call. 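Raw counts without plate normalisation, one of two replicates; the ratio scores behind the calls were not deposited.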 Unmarked entries are inactive. Not stated in the record: the amount of reagent, the time to read-out.

Aim: 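Fly genes required to hold E2F transcription in check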 (primary screen)
Cells: Drosophila S2 cells
Reagent: long dsRNA against Drosophila genes
Measured: 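Firefly luciferase driven by E2F sites, normalised to Renilla luciferase on the same minimal promoter, measured by plate reader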
Direction: E2F firefly: higher = more E2F reporter activity; Renilla normaliser: higher = more normaliser reporter signal
Hit rule: 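a knock-down counted as active when the firefly/Renilla E2F signal rose above 50%, a threshold chosen arbitrarily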

Jhbp16 [DRSC15039] → E2F firefly, rep 1 = 1.32e5; Renilla normaliser, rep 1 = 8494
sn [DRSC18834] → E2F firefly, rep 1 = 50037; Renilla normaliser, rep 1 = 3681
ball [DRSC14145] → E2F firefly, rep 1 = 1.29e5; Renilla normaliser, rep 1 = 5987
kmg [DRSC02829] → E2F firefly, rep 1 = 1.08e5; Renilla normaliser, rep 1 = 4447
Alh [DRSC12447] → E2F firefly, rep 1 = 56021; Renilla normaliser, rep 1 = 3710
Alh [DRSC12487] → E2F firefly, rep 1 = 1.23e5; Renilla normaliser, rep 1 = 6107
Alh [DRSC12488] → E2F firefly, rep 1 = 1.43e5; Renilla normaliser, rep 1 = 6979
rig [DRSC06053] → E2F firefly, rep 1 = 73861; Renilla normaliser, rep 1 = 3582
rig [DRSC06400] → E2F firefly, rep 1 = 94170; Renilla normaliser, rep 1 = 3389
CG31337 [DRSC12981] → E2F firefly, rep 1 = 81702; Renilla normaliser, rep 1 = 2891
DCTN3-p24 [DRSC04592] → E2F firefly, rep 1 = 69947; Renilla normaliser, rep 1 = 3678
CG15005 [DRSC08459] → E2F firefly, rep 1 = 93490; Renilla normaliser, rep 1 = 4240
CG12680 [DRSC17871] → E2F firefly, rep 1 = 1.02e5; Renilla normaliser, rep 1 = 4599
caz [DRSC20317] → E2F firefly, rep 1 = 67578; Renilla normaliser, rep 1 = 764
Lap1 [DRSC07454] → E2F firefly, rep 1 = 88792; Renilla normaliser, rep 1 = 4258
Dsp1 [DRSC20315] → E2F firefly, rep 1 = 64444; Renilla normaliser, rep 1 = 4338
mio [DRSC00692] → E2F firefly, rep 1 = 79913; Renilla normaliser, rep 1 = 2917
Prosbeta2R1 [DRSC18154] → E2F firefly, rep 1 = 44665; Renilla normaliser, rep 1 = 3175
CG32121 [DRSC09265] → E2F firefly, rep 1 = 1.24e5; Renilla normaliser, rep 1 = 4008
Atg4a [DRSC00656] → E2F firefly, rep 1 = 88203; Renilla normaliser, rep 1 = 3471
Or45b [DRSC07488] → E2F firefly, rep 1 = 1.52e5; Renilla normaliser, rep 1 = 5181
GluRIIC [DRSC00642] → E2F firefly, rep 1 = 85939; Renilla normaliser, rep 1 = 3218
ppk17 [DRSC02252] → E2F firefly, rep 1 = 99269; Renilla normaliser, rep 1 = 4313
Cyp9f3 [DRSC16636] → E2F firefly, rep 1 = 1.63e5; Renilla normaliser, rep 1 = 7336
Not10 [DRSC14129] → E2F firefly, rep 1 = 67520; Renilla normaliser, rep 1 = 3689
CG10710 [DRSC09784] → E2F firefly, rep 1 = 1.27e5; Renilla normaliser, rep 1 = 7368
CAH16 [DRSC15371] → E2F firefly, rep 1 = 86490; Renilla normaliser, rep 1 = 5211
polybromo [DRSC14307] → E2F firefly, rep 1 = 66940; Renilla normaliser, rep 1 = 3445
